No constants are given. Whether binding was seen depends on the method and setting. In cells and extracts the contact can be indirect. Some results given as binding are weak or reduced against the parent protein; the word gives no strength.
Tests used:
[1] = biological target: T1, lipopolysaccharide-binding protein (LBP) (UniProt P18428); experiment: co-IP; total protein extracted by 1% Triton and sonication; Protein A/G magnetic beads; western blot
T1 sequence: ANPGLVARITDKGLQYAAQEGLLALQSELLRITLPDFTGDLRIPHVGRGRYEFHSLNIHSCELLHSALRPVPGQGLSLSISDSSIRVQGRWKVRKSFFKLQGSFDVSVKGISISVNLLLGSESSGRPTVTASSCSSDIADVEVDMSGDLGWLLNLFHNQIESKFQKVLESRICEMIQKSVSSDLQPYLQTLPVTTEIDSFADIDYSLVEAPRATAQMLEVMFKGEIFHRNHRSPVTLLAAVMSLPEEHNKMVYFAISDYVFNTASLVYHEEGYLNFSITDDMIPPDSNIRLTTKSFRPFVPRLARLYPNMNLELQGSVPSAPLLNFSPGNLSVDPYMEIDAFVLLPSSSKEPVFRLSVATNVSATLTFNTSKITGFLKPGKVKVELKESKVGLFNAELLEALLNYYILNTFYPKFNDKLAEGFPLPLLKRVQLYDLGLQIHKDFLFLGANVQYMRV

[2] = biological target: T1, lipopolysaccharide-binding protein (LBP); experiment: co-IP; cells under intense oxidative stress (H2O2 treatment); total protein extracted by 1% Triton and sonication; Protein A/G magnetic beads; western blot

B1: peroxiredoxin 4 (PRDX4) (protein, UniProt Q13162 38-271)
chain: WETEERPRTREEECHFYAGGQVYPGEASRVSVADHSLHLSKAKISKPAPYWEGTAVIDGEFKELKLTDYRGKYLVFFFYPLDFTFVCPTEIIAFGDRLEEFRSINTEVVACSVDSQFTHLAWINTPRRQGGLGPIRIPLLSDLTHQISKDYGVYLEDSGHTLRGLFIIDDKGILRQITLNDLPVGRSVDETLRLVQAFQYTDKHGEVCPAGWKPGSETIIPDPAGKLKYFDKLN
binding [1]: binds
binding [2]: no binding (condition: with H2O2 treatment)
